From the supplement of paper PMC12823440, “Inhibitors supercharge kinase turnover through native proteolytic circuits” (Nature, 2025)
Counter-ions that a name gives are not always drawn. The list shows a part of the results. Hit calls seldom repeat between salt and free forms of one compound.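 Kinases, fused to nanoluciferase, were expressed in K562 cells; luminescence was measured every 4 h from 2 to 18 h as percent of control (DMSO = 100%, positive control = 0%). A time point is decreased if signal falls significantly (2 sigma). Hits were called by the authors by a rule that is not shown; the count of time points alone does not decide it.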

Amino acid sequences for entries named in this document (tags omitted).
UniProt P29317, whole entry: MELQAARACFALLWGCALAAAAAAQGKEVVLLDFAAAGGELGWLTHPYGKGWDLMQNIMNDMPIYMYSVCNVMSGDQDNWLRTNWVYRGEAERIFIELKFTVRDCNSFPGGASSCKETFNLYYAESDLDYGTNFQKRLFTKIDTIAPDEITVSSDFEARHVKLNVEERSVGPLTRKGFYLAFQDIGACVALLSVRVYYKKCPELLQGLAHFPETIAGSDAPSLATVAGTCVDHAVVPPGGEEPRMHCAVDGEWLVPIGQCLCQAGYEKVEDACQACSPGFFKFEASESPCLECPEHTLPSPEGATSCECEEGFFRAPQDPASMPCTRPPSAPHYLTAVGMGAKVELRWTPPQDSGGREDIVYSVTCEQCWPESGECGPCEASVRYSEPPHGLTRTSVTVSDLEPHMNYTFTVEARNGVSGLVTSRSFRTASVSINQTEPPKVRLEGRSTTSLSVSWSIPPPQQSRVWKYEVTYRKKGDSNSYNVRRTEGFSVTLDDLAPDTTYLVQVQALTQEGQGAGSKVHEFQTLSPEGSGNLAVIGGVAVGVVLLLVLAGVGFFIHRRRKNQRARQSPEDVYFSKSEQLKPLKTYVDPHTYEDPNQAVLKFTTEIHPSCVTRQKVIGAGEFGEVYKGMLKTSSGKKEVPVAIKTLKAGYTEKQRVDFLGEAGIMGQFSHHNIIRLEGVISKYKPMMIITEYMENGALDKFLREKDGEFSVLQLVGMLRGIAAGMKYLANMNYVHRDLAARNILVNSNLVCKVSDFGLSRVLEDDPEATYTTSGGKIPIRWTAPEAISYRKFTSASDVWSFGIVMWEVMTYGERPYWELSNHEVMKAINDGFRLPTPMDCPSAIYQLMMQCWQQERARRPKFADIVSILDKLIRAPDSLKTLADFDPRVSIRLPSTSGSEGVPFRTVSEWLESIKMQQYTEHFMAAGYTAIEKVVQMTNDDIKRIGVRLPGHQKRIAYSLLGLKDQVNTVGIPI
UniProt P21860, whole entry: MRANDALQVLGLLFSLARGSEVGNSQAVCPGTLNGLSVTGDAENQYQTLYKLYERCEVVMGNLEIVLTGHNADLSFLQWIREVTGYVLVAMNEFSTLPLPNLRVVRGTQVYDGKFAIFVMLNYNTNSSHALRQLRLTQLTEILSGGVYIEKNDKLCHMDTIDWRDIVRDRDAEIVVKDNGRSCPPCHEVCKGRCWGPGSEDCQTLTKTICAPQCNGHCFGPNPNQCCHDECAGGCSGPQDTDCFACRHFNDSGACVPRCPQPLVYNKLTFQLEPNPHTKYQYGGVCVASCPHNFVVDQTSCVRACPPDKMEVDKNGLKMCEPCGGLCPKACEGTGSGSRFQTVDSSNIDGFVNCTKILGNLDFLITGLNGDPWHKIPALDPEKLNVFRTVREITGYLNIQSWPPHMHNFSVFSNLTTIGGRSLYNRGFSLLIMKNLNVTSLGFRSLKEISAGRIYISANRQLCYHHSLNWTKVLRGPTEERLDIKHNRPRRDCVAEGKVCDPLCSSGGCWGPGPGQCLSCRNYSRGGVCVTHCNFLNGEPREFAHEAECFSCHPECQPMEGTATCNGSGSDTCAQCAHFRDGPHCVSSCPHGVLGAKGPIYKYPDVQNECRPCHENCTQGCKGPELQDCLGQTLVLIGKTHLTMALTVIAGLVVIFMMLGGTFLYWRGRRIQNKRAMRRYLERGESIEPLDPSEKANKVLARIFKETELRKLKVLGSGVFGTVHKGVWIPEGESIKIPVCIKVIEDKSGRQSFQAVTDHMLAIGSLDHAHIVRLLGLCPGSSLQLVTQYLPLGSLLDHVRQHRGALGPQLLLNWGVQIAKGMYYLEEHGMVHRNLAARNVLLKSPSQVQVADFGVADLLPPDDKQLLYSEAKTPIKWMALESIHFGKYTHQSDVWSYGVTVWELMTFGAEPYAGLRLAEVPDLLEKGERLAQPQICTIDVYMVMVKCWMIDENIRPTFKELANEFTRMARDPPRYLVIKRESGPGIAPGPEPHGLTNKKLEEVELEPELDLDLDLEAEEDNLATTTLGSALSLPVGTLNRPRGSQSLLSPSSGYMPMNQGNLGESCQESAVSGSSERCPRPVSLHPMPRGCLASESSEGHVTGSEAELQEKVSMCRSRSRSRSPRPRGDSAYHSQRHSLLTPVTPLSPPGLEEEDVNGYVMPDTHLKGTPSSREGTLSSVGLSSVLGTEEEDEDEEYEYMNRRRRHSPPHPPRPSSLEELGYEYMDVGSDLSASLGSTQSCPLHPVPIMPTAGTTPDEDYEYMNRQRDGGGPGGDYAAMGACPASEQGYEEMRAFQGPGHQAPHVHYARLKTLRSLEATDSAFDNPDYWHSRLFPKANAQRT
UniProt Q15303, whole entry R711C: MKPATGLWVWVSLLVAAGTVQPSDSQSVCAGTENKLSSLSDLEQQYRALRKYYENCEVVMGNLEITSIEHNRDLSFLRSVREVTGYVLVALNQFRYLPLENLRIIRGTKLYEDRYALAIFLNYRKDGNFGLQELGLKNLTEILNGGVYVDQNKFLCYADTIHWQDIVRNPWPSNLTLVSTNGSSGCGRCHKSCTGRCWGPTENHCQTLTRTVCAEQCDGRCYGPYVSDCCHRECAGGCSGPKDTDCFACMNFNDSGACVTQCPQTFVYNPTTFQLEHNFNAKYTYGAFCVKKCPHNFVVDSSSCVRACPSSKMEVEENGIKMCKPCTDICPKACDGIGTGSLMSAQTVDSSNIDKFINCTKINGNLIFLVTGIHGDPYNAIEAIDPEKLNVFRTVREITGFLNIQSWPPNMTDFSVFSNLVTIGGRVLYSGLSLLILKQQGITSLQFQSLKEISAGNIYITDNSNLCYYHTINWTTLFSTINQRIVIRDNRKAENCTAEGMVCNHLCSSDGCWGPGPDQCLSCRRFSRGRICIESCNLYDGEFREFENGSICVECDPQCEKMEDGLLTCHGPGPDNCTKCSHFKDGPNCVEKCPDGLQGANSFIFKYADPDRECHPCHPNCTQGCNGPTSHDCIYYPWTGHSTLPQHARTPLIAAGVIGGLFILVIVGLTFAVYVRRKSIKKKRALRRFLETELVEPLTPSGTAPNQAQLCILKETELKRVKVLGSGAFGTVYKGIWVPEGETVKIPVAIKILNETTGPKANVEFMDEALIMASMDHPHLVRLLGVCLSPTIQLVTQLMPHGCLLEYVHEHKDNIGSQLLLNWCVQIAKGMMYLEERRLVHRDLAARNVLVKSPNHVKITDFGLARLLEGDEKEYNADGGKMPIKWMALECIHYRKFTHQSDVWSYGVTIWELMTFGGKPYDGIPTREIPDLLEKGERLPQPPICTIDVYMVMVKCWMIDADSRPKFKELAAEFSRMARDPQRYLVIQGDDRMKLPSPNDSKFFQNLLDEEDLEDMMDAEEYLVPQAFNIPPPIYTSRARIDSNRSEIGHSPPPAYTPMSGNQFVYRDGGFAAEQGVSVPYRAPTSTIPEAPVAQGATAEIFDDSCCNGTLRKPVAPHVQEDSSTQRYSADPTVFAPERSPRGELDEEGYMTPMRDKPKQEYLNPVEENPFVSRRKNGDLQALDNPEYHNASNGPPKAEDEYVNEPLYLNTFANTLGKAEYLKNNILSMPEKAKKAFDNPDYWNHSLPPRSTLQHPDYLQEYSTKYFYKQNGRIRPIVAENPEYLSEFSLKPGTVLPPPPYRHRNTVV

What was measured:
Assay in all cases: kinase-Nluc reporter destabilization hit call (1 = scored as downregulated) (binary); higher = compound decreases kinase abundance
[1] = target: EPHA2 (UniProt P29317); details: K562, 2-18 h
[2] = target: ERBB3 (UniProt P21860); details: K562, 2-18 h
[3] = target: ERBB4_R711C (clone: ERBB4_mut) (UniProt Q15303); details: K562, 2-18 h
[4] = target: EGFR (UniProt P00533); details: 10 µM; K562; 2-18 h
[5] = target: EGFR_G719S (UniProt P00533); details: 10 µM; K562; 2-18 h
[6] = target: EGFR_G719S_T790M (UniProt P00533); details: 10 µM; K562; 2-18 h
[7] = target: EGFR_L718V (UniProt P00533); details: 10 µM; K562; 2-18 h
[8] = target: EGFR_L858R (UniProt P00533); details: 10 µM; K562; 2-18 h
[9] = target: EGFR_L861Q (UniProt P00533); details: 10 µM; K562; 2-18 h
[10] = target: EGFR_T790M (UniProt P00533); details: 10 µM; K562; 2-18 h

| Structure (SMILES) | kinase-Nluc reporter destabilization hit call ([1]; 2.5 µM) | kinase-Nluc reporter destabilization hit call ([2]; 2.5 µM) | kinase-Nluc reporter destabilization hit call ([3]; 2.5 µM) | kinase-Nluc reporter destabilization hit call [4] | kinase-Nluc reporter destabilization hit call [5] | kinase-Nluc reporter destabilization hit call [6] | kinase-Nluc reporter destabilization hit call [7] | kinase-Nluc reporter destabilization hit call [8] | kinase-Nluc reporter destabilization hit call [9] | kinase-Nluc reporter destabilization hit call [10] | kinase-Nluc reporter destabilization hit call ([1]; 10 µM) | kinase-Nluc reporter destabilization hit call ([2]; 10 µM) | kinase-Nluc reporter destabilization hit call ([3]; 10 µM) |
| --- | --- | --- | --- | --- | --- | --- | --- | --- | --- | --- | --- | --- | --- |
| C=CC(=O)Nc1cc(Nc2nccc(-c3cn(C)c4ccccc34)n2)c(OC)cc1N(C)CCN(C)C [Osimertinib] | inactive: 0 | inactive: 0 | inactive: 0 | – | – | – | – | – | – | – | – | – | – |
| O=C(Nc1cnn2ccc(N3CCC[C@@H]3c3cc(F)ccc3F)nc12)N1CC[C@H](O)C1 [Larotrectinib sulfate] | – | – | – | inactive: 0 | inactive: 0 | inactive: 0 | inactive: 0 | inactive: 0 | inactive: 0 | inactive: 0 | inactive: 0 | inactive: 0 | inactive: 0 |
| O=C(O)c1ccc2c(c1)nc(Nc1cccc(Cl)c1)c1ccncc12 [Silmitasertib] | – | – | – | inactive: 0 | active: 1 | inactive: 0 | inactive: 0 | inactive: 0 | inactive: 0 | inactive: 0 | inactive: 0 | inactive: 0 | inactive: 0 |
| Oc1cccc(-c2nc(N3CCOCC3)c3oc4ncccc4c3n2)c1 | – | – | – | inactive: 0 | inactive: 0 | inactive: 0 | inactive: 0 | inactive: 0 | inactive: 0 | inactive: 0 | inactive: 0 | inactive: 0 | inactive: 0 |
